Earlier results in patent US7985754B2, “Selective antagonists of A2A adenosine receptors” (Trovis Pharmaceuticals, LLC, priority 2006, dated 2011).
For at least one compound, name, drawing or mass did not settle the structure.

Settings: undergoes photoisomerization from E-isomer to Z-isomer

SMILES: CCn1c(=O)c2c(nc(/C=C/c3ccc(OC)c(OC)c3)n2C)n(CC)c1=O [KW-6002]
- light sensitivity: light-sensitive
